According to paper PMC12848076, “Identification of two odorant receptors tuned to alarm pheromone compounds in the honey bee Apis mellifera” (Communications Biology, 2025):

tested on: T1, AmelOR136; assay: single sensillum recording, ab3A OSN, dose-response; format: cell-based, Apis mellifera; settings: agonist; estimated airborne amount in stimulus, not a concentration; vs mineral oil; full curve only in Figure 5A
T1 construct: full-length ORF, codon-optimized, pUAST.attB at 86F8; expressed in ab3A OSNs of D. melanogaster lacking OR22a/OR22b (empty neuron); endogenous Drosophila Orco as co-receptor; with Odorant receptor coreceptor

| Compound | dose of statistical significance |
| --- | --- |
| CCOC(=O)CC(C)O (stereo not shown) [ethyl-3-hydroxybutyrate] | 32000 pmol |
| CC(=O)OCC(C)C [isobutyl acetate] | 74000 pmol |
| CCCCOC(C)=O [butyl acetate] | 56000 pmol |
| CC(=O)OCCC(C)C [isopentyl acetate] | 27000 pmol |

Marks after values point to notes of the source that are not given here.
